From PMC9918503
Residue numbers refer to the chain shown, from its start. No constants are given. Whether binding was seen depends on the method and setting. Binding seen in cells or lysates may run through a third protein. Some binding calls cover weakened binding; strength is not graded here. For some of these results: Tags and fused reporters may be left off the sequences shown.

By UniProt entry, the sequences of proteins in these tests, tags left out.
UniProt P01106: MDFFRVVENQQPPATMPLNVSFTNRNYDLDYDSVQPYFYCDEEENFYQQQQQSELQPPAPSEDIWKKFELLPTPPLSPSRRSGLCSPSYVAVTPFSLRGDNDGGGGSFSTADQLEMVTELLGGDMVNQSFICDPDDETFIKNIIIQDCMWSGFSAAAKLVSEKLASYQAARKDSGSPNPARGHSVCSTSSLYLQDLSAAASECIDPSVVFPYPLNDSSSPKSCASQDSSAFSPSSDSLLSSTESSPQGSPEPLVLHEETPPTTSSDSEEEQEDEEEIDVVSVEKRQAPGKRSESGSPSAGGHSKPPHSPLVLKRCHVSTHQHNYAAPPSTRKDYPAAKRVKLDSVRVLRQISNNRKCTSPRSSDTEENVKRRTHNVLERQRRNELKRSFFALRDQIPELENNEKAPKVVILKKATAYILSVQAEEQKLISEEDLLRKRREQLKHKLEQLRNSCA
UniProt Q96SB4: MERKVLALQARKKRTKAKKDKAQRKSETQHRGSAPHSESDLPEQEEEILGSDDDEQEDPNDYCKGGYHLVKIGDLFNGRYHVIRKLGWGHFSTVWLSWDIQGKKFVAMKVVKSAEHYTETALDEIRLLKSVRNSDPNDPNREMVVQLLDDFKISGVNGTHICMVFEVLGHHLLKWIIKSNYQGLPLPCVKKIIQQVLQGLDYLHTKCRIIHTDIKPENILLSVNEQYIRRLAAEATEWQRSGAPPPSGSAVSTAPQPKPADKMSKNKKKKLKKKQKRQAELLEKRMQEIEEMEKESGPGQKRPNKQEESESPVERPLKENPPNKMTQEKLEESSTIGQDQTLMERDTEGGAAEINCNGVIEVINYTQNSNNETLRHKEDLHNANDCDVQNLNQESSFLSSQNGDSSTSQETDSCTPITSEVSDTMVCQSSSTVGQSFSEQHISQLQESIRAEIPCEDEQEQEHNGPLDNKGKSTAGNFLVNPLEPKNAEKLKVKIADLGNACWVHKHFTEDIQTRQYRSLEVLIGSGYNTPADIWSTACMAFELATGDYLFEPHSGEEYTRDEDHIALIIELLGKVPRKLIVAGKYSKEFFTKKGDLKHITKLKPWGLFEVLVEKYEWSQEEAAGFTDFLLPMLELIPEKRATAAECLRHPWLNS

What was measured:
[1] = target: T1, HA-tag-CTDNEP1 (D425 cells) (UniProt O95476); assay: co-IP; D425 cells transduced with control or lentivirus expressing HA-tag-CTDNEP1; 4-h MG132 treatment (Fig. 3l); immunoblots
T1 sequence: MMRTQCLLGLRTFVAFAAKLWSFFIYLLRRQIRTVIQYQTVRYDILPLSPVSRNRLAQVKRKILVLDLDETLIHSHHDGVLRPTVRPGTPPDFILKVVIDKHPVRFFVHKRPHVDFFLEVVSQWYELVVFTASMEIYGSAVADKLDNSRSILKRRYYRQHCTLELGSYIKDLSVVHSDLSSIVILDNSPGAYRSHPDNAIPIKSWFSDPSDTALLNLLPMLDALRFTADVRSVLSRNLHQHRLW

[2] = target: T2, CTDNEP1-D69N (HeLa cells) (UniProt O95476); assay: proximity ligation; PLA in HeLa cells expressing HA-tagged CTDNEP1 or CTDNEP1-D69N; signal at the nuclear periphery
T2 sequence: T1 sequence with D69N

[3] = target: T3, HA-tagged CTDNEP1 (HeLa cells) (UniProt O95476); assay: as above
T3 sequence: T1 sequence

Substance | binding [1] | binding [2] | binding [3]
MYC (D425 cells) (from UniProt P01106 1-454) | binds | – | –
SRPK1 (D425 cells) (from UniProt Q96SB4 1-655) | binds | – | –
MYC (HeLa cells) (from UniProt P01106 1-454) | – | binds | binds
